# Reference: paper PMC6361202
# These are yes or no findings as the source states them, for the method shown. Some entries that bind do so weakly or less than the wild type. Where a sequence is shown, tags or fusion partners need not be part of it.
# T1: Kar9 fused to the LexA DNA-binding domain (S. cerevisiae) (UniProt P32526)
# T1 sequence: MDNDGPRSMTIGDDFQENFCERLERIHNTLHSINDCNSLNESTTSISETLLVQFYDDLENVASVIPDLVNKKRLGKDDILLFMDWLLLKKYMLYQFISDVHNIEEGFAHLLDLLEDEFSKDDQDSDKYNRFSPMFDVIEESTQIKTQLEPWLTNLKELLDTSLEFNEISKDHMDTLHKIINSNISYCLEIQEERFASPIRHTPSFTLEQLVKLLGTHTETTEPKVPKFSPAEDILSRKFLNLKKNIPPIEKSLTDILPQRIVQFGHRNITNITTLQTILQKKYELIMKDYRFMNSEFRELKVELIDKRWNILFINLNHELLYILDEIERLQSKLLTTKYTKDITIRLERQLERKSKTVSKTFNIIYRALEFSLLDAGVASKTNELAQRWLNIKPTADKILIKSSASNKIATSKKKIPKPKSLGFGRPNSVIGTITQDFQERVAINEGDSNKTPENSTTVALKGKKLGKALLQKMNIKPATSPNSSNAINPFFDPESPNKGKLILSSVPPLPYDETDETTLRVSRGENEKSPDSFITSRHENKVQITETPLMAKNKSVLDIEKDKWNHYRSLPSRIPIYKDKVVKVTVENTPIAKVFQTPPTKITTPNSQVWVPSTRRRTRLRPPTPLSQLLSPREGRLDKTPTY
# T2: wt β-tubulin (Tub2) fused to the LexA DNA-binding domain (S. cerevisiae) (UniProt P02557)
# T2 sequence: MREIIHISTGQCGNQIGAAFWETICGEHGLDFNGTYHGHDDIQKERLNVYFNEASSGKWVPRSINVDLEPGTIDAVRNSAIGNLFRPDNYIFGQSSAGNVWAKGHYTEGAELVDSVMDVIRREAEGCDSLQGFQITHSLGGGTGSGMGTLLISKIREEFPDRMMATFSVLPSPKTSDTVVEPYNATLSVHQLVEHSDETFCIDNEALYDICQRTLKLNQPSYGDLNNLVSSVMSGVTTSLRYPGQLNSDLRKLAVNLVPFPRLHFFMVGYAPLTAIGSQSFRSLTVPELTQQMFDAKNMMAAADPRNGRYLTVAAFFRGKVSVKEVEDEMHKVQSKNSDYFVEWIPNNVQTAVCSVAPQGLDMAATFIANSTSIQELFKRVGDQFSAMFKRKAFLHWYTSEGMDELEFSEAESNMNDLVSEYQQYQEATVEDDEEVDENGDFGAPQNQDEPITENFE
# B1: Bim1 (yeast EB1) fused to the GAL4 activation domain (protein, UniProt P40013 1-344)
# chain: MSAGIGESRTELLTWLNGLLNLNYKKIEECGTGAAYCQIMDSIYGDLPMNRVKFNATAEYEFQTNYKILQSCFSRHGIEKTVYVDKLIRCKFQDNLEFLQWLKKHWIRHKDESVYDPDARRKYRPIITNNSATKPRTVSNPTTAKRSSSTGTGSAMSGGLATRHSSLGINGSRKTSVTQGQLVAIQAELTKSQETIGSLNEEIEQYKGTVSTLEIEREFYFNKLRDIEILVHTTQDLINEGVYKFNDETITGHGNGNGGALLRFVKKVESILYATAEGFEMNDGEDELNDKNLGEHGTVPNQGGYANSNGEVNGNEGSNHDVIMQNDEGEVGVSNNLIIDEETF
# Columns and labels:
# [1] = molecular target: T1, Kar9 fused to the LexA DNA-binding domain (S. cerevisiae); assay: two-hybrid; Bim1 fused to the GAL4 activation domain (pGADT7); wt or F265L β-tubulin or Kar9 fused to the LexA DNA-binding domain (pLexA); β-galactosidase activity detected on filters
# [2] = molecular target: T2, wt β-tubulin (Tub2) fused to the LexA DNA-binding domain (S. cerevisiae); assay: as above
binder,measurement,setting,value
B1,binding,[1],binds
same,binding,[2],binds
